# Experimental data from patent US12515027B2, “Subcutaneous biodegradable reservoir device” (Research Triangle Institute, priority 2018, dated 2026).
# At least one compound was matched to its structure with a doubt left.
# Key:
# [1] = In vitro release from PCL reservoir implants in PBS pH 7.4 at 37 °C (UV-Vis); format: physicochemical
# Description: The implants were incubated in 1×PBS (pH 7.4) at 37° C. Drug quantity released in media was measured via UV-Vis three times per week during which the implants were transferred to fresh buffer to maintain sink conditions. Drug concentrations were determined by correlating UV absorbance values to a standard curve. Standard curves involved measuring peak absorbance values as a function of drug concentrations diluted by half from bulk solutions. Peak absorbance values were determined by scanning the dilute drug solutions from 230 to 700 nm at a step size of 1 nm and assessing the maximum UV absorbance value.
# Testing was performed to evaluate release kinetics of varying formulations of active agent and excipient. In particular, the release mechanism and release profiles for TAF formulated with varying mass quantities of castor oil from extruded PCL tubes was evaluated. Heat extruded PCL devices were fabricated (2.5 mm×40 mm) using 80 kDa Sigma grade PCL. […] For the in vitro release studies, devices were incubated in 40 mL of phosphate buffered saline (PBS) at pH 7.4 in a shaking incubator at 37° C. The implants were transferred to fresh buffer three times per week to maintain sink conditions.
# Testing was performed to evaluate the in vitro release profile for an exemplary segmented device. In-vitro conditions included a simulated physiological media of a salt solution at pH between 6.5 and 7.5 at a temperature of 37° C. The exemplary device was engineered to release two APIs simultaneously, both at zero-order release kinetics. The device was fabricated with a segmented architecture that contained LNG formulated with ethyl oleate at a 1:4 ratio and EFdA formulated with castor oil at a 1:1 ratio and housed in separate compartments within a single implant design. Different segment lengths, polymer membrane thicknesses and polymer properties were tested.
# In vitro release characterization involved incubation of the implants in 40 mL 1× phosphate buffered saline (PBS) (pH 7.4) at 37° C. and placed on an orbital shaker. […] The release buffer was sampled three times per week during which the devices were transferred to 40 mL of fresh buffer to maintain sink conditions. TAF quantity released in each PBS buffer during the time interval was calculated and cumulative mass of drug release as a function of time was determined.
# [2] = Chromatographic purity (stability) of formulation inside implant after in-vitro exposure (UPLC/UV); format: physicochemical; conditions: chromatographic purity of LNG inside device core after 400 days in-vitro
compound,measurement,setting,value
"C#C[C@]1(O)CC[C@H]2[C@@H]3CCC4=CC(=O)CC[C@@H]4[C@H]3CC[C@@]21CC [LNG, Levonorgestrel]",duration of zero order release,"[1]; LNG 1:4 with ethyl oleate, oleic acid, propylene glycol or sesame oil, 70 μm, 80 kDa PCL",100 days
same,duration of linear release profiles,[1]; LNG formulation at 2:1 drug excipient ratio,320 days
same,start of deviation from zero order kinetics,"[1]; LNG segments (1:4), Sigma and medical grade PCL devices",~180 days
same,duration of linear release profiles,"[1]; LNG with sesame oil or ethyl oleate at 1:4 to 4:1, 70 μm, PCL 89 kDa, 10 mm",approximately 400 days
same,release rate of the ethyl oleate device,"[1]; LNG:ethyl oleate 1:4, 1 wt % α-tocopherol, 70 μm wall, 80 kDa PCL, normalized to 10 mm-long implant",around 30 μg/day
same,sustained period of release at about 30 μg/day,"[1]; exemplary device, in vitro conditions",up to 420 days
same,duration of linear release profile in vitro,"[1]; exemplary formulations, summary statement",up to 320 days
same,duration of zero-order release,[1]; segmented implant LNG/EFdA,6 months
same,release rate of segment,"[1]; segmented implant: LNG:ethyl oleate 1:4 and EFdA:castor oil 1:1, 70 μm wall, EFdA after burst of first 10 days",30 to 40 µg/day
same,Daily RR,"[1]; segmented implant: LNG:sesame oil 2:1 (20 mm, 70 μm) + TAF base:castor oil 2:1 (30 mm, 70 μm), PCL 89 kDa",23.0 ± 2.7 µg/day
same,Daily RR,"[1]; segmented implant: LNG:sesame oil 2:1 (20 mm, 70 μm) + TAF base:sesame oil 2:1 (30 mm, 70 μm), PCL 89 kDa",20.4 ± 2.7 µg/day
same,duration of zero-order release from segmented implants,[1]; segmented implants of TAF with LNG or ENG,50 days
same,% Purity at 400 days,[2],> 99%
